The source of these data is paper PMC3277888.

The target of assay [1] is T1, MBP-Kip3 (S. cerevisiae), P53086.
T1 chain: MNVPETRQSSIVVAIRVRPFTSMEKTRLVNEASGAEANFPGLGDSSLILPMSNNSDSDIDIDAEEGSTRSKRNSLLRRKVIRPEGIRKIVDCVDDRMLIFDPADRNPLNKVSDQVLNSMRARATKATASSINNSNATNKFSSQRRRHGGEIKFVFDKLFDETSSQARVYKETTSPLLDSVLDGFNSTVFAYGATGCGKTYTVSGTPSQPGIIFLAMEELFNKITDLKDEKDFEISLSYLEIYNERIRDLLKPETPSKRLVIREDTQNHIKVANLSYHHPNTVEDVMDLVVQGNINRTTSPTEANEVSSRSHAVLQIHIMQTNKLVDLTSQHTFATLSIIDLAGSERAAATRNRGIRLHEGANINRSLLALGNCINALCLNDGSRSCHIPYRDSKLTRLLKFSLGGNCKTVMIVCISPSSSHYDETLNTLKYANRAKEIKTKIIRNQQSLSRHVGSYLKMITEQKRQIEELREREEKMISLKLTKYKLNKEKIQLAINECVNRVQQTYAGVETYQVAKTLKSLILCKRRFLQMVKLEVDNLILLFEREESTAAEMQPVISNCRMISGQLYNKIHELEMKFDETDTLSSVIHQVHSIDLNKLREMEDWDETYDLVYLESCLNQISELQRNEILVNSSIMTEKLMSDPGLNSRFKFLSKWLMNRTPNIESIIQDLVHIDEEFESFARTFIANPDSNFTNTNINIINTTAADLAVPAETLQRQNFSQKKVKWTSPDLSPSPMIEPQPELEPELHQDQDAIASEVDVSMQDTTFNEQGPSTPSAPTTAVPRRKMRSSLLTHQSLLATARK
In words: pull-down; MBP-Kip3 or MBP alone immobilized on amylose beads, incubated with yeast extract from STU2-HA and BIK1-HA cells; bound HA-tagged proteins detected by western blot; also done with nocodazole added to cell culture and binding reaction; only the target purified. Conditions: remark: other sources report otherwise. Background: A western blot detects proteins with antibodies after separation by electrophoresis.

A further assay addresses T2, Kip3-VC (S. cerevisiae) (UniProt P53086).
T2 sequence: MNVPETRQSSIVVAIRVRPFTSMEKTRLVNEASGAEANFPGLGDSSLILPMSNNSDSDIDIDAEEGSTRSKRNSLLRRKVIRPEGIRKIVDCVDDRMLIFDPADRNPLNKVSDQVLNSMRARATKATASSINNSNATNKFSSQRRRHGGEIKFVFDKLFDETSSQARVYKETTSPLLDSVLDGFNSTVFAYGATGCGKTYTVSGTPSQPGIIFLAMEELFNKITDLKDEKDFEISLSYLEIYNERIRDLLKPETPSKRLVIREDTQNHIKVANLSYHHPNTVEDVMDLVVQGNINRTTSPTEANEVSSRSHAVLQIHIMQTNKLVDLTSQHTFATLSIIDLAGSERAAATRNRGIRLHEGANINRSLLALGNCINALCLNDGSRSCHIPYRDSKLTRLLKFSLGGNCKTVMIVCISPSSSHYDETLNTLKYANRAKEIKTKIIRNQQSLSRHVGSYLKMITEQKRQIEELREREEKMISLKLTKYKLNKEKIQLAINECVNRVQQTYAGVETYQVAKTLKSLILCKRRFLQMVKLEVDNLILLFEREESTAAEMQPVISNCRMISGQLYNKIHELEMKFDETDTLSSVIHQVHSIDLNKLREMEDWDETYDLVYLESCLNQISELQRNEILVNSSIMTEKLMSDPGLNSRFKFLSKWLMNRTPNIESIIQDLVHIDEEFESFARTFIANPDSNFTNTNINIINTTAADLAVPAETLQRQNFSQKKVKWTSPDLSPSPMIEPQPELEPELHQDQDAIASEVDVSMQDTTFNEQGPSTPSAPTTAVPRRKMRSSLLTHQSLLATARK
In words: split reporter; BiFC in living S. cerevisiae cells (engineered CEN3 reactivation assay); Stu2-VN and Kip3-VC; Venus signal imaged every 7 s in the YFP channel.

The next assay deals with T3, MBP-Kip3 (S. cerevisiae) (UniProt P53086).
T3 sequence: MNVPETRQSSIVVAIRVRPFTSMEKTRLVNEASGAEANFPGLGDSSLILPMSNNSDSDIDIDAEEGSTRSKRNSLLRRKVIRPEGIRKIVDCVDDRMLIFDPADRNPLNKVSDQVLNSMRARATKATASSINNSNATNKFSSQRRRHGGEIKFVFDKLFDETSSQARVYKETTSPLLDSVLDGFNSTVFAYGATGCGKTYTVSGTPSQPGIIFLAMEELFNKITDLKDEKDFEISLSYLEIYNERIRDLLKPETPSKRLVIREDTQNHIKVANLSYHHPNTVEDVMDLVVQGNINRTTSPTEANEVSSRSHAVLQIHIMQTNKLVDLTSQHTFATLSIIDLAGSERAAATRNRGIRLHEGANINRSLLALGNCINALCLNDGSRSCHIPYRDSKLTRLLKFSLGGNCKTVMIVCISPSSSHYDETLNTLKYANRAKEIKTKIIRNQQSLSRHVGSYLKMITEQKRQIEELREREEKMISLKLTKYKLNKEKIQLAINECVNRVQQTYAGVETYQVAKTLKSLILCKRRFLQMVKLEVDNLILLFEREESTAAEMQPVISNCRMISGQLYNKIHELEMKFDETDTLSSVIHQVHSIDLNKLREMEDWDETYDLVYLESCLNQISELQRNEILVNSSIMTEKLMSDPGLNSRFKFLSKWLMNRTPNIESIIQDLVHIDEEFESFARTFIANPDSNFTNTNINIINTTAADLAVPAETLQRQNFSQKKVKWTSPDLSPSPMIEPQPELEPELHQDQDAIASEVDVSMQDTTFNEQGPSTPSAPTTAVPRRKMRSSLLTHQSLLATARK
Put plainly: pull-down; MBP-Kip3 or MBP alone immobilized on amylose beads, incubated with yeast extract from STU2-HA and BIK1-HA cells; bound HA-tagged proteins detected by western blot; also done with nocodazole added to cell culture and binding reaction; only the target purified.

No constants are given. Whether binding was seen depends on the method and setting. Binding seen in cells or lysates may run through a third protein. Some entries that bind do so weakly or less than the wild type. For part of these data: Sequences can lack the tags named with a protein.

B1: Bik1-HA, P11709 1-440 (protein)
chain: MDRYQRKIGCFIQIPNLGRGQLKYVGPVDTKAGMFAGVDLLANIGKNDGSFMGKKYFQTEYPQSGLFIQLQKVASLIEKASISQTSRRTTMEPLSIPKNRSIVRLTNQFSPMDDPKSPTPMRSFRITSRHSGNQQSMDQEASDHHQQQEFGYDNREDRMEVDSILSSDRKANHNTTSDWKPDNGHMNDLNSSEVTIELREAQLTIEKLQRKQLHYKRLLDDQRMVLEEVQPTFDRYEATIQEREKEIDHLKQQLELERRQQAKQKQFFDAENEQLLAVVSQLHEEIKENEERNLSHNQPTGANEDVELLKKQLEQLRNIEDQFELHKTKWAKEREQLKMHNDSLSKEYQNLSKELFLTKPQDSSSEEVASLTKKLEEANEKIKQLEQAQAQTAVESLPIFDPPAPVDTTAGRQQWCEHCDTMGHNTAECPHHNPDNQQFF
Consider B1, for which the binding result in assay [1] is reported as “no binding”.

B2: Stu2-VN (protein, UniProt P46675 1-888)
chain: MSGEEEVDYTTLPLEERLTYKLWKARLEAYKELNQLFRNSVGDISRDDNIQIYWRDPTLFAQYITDSNVVAQEQAIVALNSLIDAFASSSLKNAHNITLISTWTPLLVEKGLTSSRATTKTQSMSCILSLCGLDTSITQSVELVIPFFEKKLPKLIAAAANCVYELMAAFGLTNVNVQTFLPELLKHVPQLAGHGDRNVRSQTMNLIVEIYKVTGNNSDLLEEILFKKLKPIQVKDLHKLFAKVGDEPSSSKMLFEWEKRELEKKRSQEEEARKRKSILSNDEGEYQIDKDGDTLMGMETDMPPSKQQSGVQIDTFSMLPEETILDKLPKDFQERITSSKWKDRVEALEEFWDSVLSQTKKLKSTSQNYSNLLGIYGHIIQKDANIQAVALAAQSVELICDKLKTPGFSKDYVSLVFTPLLDRTKEKKPSVIEAIRKALLTICKYYDPLASSGRNEDMLKDILEHMKHKTPQIRMECTQLFNASMKEEKDGYSTLQRYLKDEVVPIVIQIVNDTQPAIRTIGFESFAILIKIFGMNTFVKTLEHLDNLKRKKIEETVKTLPNFSIASGSTHSTIETNKQTGPMENKFLLKKSSVLPSKRVASSPLRNDNKSKVNPIGSVASASKPSMVAANNKSRVLLTSKSLATPKNVVANSTDKNEKLIEEYKYRLQKLQNDEMIWTKERQSLLEKMNNTENYKIEMIKENEMLREQLKEAQSKLNEKNIQLRSKEIDVNKLSDRVLSLENELRNMEIELDRNKKRNDTNLQSMGTISSYSIPSSTVSSNYGVKSLSSALPFKEEEDVRRKEDVNYERRSSESIGDLPHRVNSLNIRPYRKNGTGVSSVSDDLDIDFNDSFASEESYKRAAAVTSTLKARIEKMKAKSRREGTTRT
On to B2, for which the binding entry with Kip3-VC (S. cerevisiae) is listed as “binds”.

B3: Stu2-HA (protein, UniProt P46675 1-888)
chain: MSGEEEVDYTTLPLEERLTYKLWKARLEAYKELNQLFRNSVGDISRDDNIQIYWRDPTLFAQYITDSNVVAQEQAIVALNSLIDAFASSSLKNAHNITLISTWTPLLVEKGLTSSRATTKTQSMSCILSLCGLDTSITQSVELVIPFFEKKLPKLIAAAANCVYELMAAFGLTNVNVQTFLPELLKHVPQLAGHGDRNVRSQTMNLIVEIYKVTGNNSDLLEEILFKKLKPIQVKDLHKLFAKVGDEPSSSKMLFEWEKRELEKKRSQEEEARKRKSILSNDEGEYQIDKDGDTLMGMETDMPPSKQQSGVQIDTFSMLPEETILDKLPKDFQERITSSKWKDRVEALEEFWDSVLSQTKKLKSTSQNYSNLLGIYGHIIQKDANIQAVALAAQSVELICDKLKTPGFSKDYVSLVFTPLLDRTKEKKPSVIEAIRKALLTICKYYDPLASSGRNEDMLKDILEHMKHKTPQIRMECTQLFNASMKEEKDGYSTLQRYLKDEVVPIVIQIVNDTQPAIRTIGFESFAILIKIFGMNTFVKTLEHLDNLKRKKIEETVKTLPNFSIASGSTHSTIETNKQTGPMENKFLLKKSSVLPSKRVASSPLRNDNKSKVNPIGSVASASKPSMVAANNKSRVLLTSKSLATPKNVVANSTDKNEKLIEEYKYRLQKLQNDEMIWTKERQSLLEKMNNTENYKIEMIKENEMLREQLKEAQSKLNEKNIQLRSKEIDVNKLSDRVLSLENELRNMEIELDRNKKRNDTNLQSMGTISSYSIPSSTVSSNYGVKSLSSALPFKEEEDVRRKEDVNYERRSSESIGDLPHRVNSLNIRPYRKNGTGVSSVSDDLDIDFNDSFASEESYKRAAAVTSTLKARIEKMKAKSRREGTTRT
Consider B3, for which the binding entry in the assay with MBP-Kip3 (S. cerevisiae) was “binds weakly”.
